# Earlier results as cited in patent US20190000850A1, “COMBINATION CANCER THERAPY” (The Regents of the University of California, priority 2015, published 2019).
# Molecular target: T1, Chk1 (Homo sapiens, UniProt O14757)
# T1 sequence (O14757 1-476): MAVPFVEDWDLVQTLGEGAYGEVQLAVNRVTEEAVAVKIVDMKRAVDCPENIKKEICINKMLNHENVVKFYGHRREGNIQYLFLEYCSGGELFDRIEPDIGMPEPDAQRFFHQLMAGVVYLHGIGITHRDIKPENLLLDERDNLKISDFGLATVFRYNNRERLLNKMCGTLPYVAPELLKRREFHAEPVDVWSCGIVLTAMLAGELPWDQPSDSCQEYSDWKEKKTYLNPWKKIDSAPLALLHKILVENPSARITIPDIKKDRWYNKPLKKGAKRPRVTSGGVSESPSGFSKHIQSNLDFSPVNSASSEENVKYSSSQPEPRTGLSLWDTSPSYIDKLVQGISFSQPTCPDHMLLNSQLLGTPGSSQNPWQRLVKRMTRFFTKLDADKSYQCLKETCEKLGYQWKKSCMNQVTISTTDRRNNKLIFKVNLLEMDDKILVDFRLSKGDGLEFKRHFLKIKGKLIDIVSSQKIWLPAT
# Details: read-out: IC50 against primary target (Chk1); cited from earlier work
smiles,measurement,value
CNCCCn1c2ccc(O)cc2c2c3c(c(-c4c(Cl)cccc4Cl)cc21)C(=O)NC3=O [PD-321852],IC50,5 nM
